PubChem BioAssay AID504791 – Drosophila RNAi Screening Center, 2011
Assay: 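Genes whose knock-down strengthens or weakens small-RNA reporter silencing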 (primary screen). Cells: Drosophila S2-derived reporter cells. Reagents: long dsRNA against Drosophila genes, about 150-250 ng dsRNA per well (siRNA assay); about 80-120 ng (miRNA assay). Duration: about 5 days (siRNA assay); about 4 days (miRNA assay). Conditions: copper sulfate induction of reporters: 25 µM (siRNA assay); 200 mM stated (miRNA assay), 1-2 days before reading. Measurement: 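Dual luciferase assay: Renilla to firefly signal ratio in each well, scaled to the mean ratio of its plate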. Rule for the call: 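First-pass picks had plate-scaled ratios over 1.5 for the siRNA assay, over 1.6 for the miRNA assay, or under 0.6; two distinct dsRNAs had to score alike on retest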.
The screen tested about 23,000 reagents; below is an unselected part of those with a known target gene and a result. In the full data, 199 (0.86%) got an active call. 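Plate-scaled ratios behind the calls are not deposited; printed light signals are raw; many rows marked increased or decreased are still called inactive.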 A number with no mark means an inactive call. Names joined by + are all predicted targets of the reagent. The record does not give: the direction of the score.

Which result is listed for CG2278 (GeneID 31751) [DRSC18226]?
stable assay Renilla, run 1 (luminescence): 6319; stable assay firefly, run 1 (luminescence): 3.08e5

What did the screen give for CG15570 (GeneID 31366) [DRSC18058]?
stable assay Renilla, run 1 (luminescence): 4428; stable assay firefly, run 1 (luminescence): 3.08e5

For shop (GeneID 32878) [DRSC20030], what does the deposit list?
stable assay Renilla, run 1 (luminescence): 7062; stable assay firefly, run 1 (luminescence): 3.52e5

What did the screen give for Oatp74D (GeneID 39954) [DRSC09491]?
stable assay Renilla, run 1 (luminescence): 5731; stable assay firefly, run 1 (luminescence): 4.36e5

For Oatp74D (GeneID 39954) [DRSC10883], what was measured?
stable assay Renilla, run 1 (luminescence): 7866; stable assay firefly, run 1 (luminescence): 2.94e5

How did the screen score CG6067 (GeneID 31529) [DRSC18399]?
stable assay Renilla, run 1 (luminescence): 5660; stable assay firefly, run 1 (luminescence): 2.76e5

With CG5504 (GeneID 48844) [DRSC04701], what was measured?
stable assay Renilla, run 1 (luminescence): 17478; stable assay firefly, run 1 (luminescence): 1.54e6

With CG2217 + CG42740 [DRSC14141], what was measured?
stable assay Renilla, run 1 (luminescence): 7283; stable assay firefly, run 1 (luminescence): 3.33e5

For eys (GeneID 3771890) [DRSC00113], what does the deposit list?
stable assay Renilla, run 1 (luminescence): 5283; stable assay firefly, run 1 (luminescence): 3.97e5

Which result is listed for eys (GeneID 3771890) [DRSC00402]?
stable assay Renilla, run 1 (luminescence): 8499; stable assay firefly, run 1 (luminescence): 3.89e5

What did the screen give for eys (GeneID 3771890) [DRSC00403]?
stable assay Renilla, run 1 (luminescence): 7671; stable assay firefly, run 1 (luminescence): 3.85e5

For eys (GeneID 3771890) [DRSC00695], what does the deposit list?
stable assay Renilla, run 1 (luminescence): 11573; stable assay firefly, run 1 (luminescence): 2.08e5

For Amy-d (GeneID 36932) [DRSC05919], what does the deposit list?
stable assay Renilla, run 1 (luminescence): 6127; stable assay firefly, run 1 (luminescence): 2.82e5

For CG31802 (GeneID 318949) [DRSC02459], what was measured?
stable assay Renilla, run 1 (luminescence): 7654; stable assay firefly, run 1 (luminescence): 4.72e5

What did the screen give for roh (GeneID 246602) [DRSC04003]?
stable assay Renilla, run 1 (luminescence): 4143; stable assay firefly, run 1 (luminescence): 4.64e5

What did the screen give for inaE (GeneID 32343) [DRSC19376]?
stable assay Renilla, run 1 (luminescence): 6399; stable assay firefly, run 1 (luminescence): 5.15e5

With inaE (GeneID 32343) [DRSC19377], how do the results read?
stable assay Renilla, run 1 (luminescence): 8342; stable assay firefly, run 1 (luminescence): 5.53e5

With inaE (GeneID 32343) [DRSC19379], how do the results read?
stable assay Renilla, run 1 (luminescence): 3851; stable assay firefly, run 1 (luminescence): 3.61e5

What is on record for inaE (GeneID 32343) [DRSC19726]?
stable assay Renilla, run 1 (luminescence): 5734; stable assay firefly, run 1 (luminescence): 5.01e5

What did the screen give for LManVI (GeneID 34206) [DRSC03224]?
stable assay Renilla, run 1 (luminescence): 7306; stable assay firefly, run 1 (luminescence): 4.31e5

With CG33333 (GeneID 2768672) [DRSC13233], what does the deposit list?
stable assay Renilla, run 1 (luminescence): 3311; stable assay firefly, run 1 (luminescence): 3.34e5

For Apc (GeneID 44642) [DRSC14114], what does the deposit list?
stable assay Renilla, run 1 (luminescence): 6364; stable assay firefly, run 1 (luminescence): 4.47e5

Which result is listed for Fem-1 (GeneID 37344) [DRSC07322]?
stable assay Renilla, run 1 (luminescence): 6398; stable assay firefly, run 1 (luminescence): 3.08e5

What is on record for CG43316 (GeneID 36326) [DRSC06296]?
stable assay Renilla, run 1 (luminescence): 5431; stable assay firefly, run 1 (luminescence): 3.13e5

With CG43316 (GeneID 36326) [DRSC06297], how do the results read?
stable assay Renilla, run 1 (luminescence): 6943; stable assay firefly, run 1 (luminescence): 3.50e5

With Rpi (GeneID 246599) [DRSC04583], what was measured?
stable assay Renilla, run 1 (luminescence): 4848; stable assay firefly, run 1 (luminescence): 3.07e5

Which result is listed for CG3651 (GeneID 35440) [DRSC03730]?
stable assay Renilla, run 1 (luminescence): 6555; stable assay firefly, run 1 (luminescence): 4.03e5

How did the screen score fzo (GeneID 42745) [DRSC16954]?
stable assay Renilla, run 1 (luminescence): 6530; stable assay firefly, run 1 (luminescence): 3.22e5

With Eglp1 (GeneID 37736) [DRSC04502], how do the results read?
stable assay Renilla, run 1 (luminescence): 2.19e5; stable assay firefly, run 1 (luminescence): 7.09e5

With yellow-g2 (GeneID 38295) [DRSC08338], what was measured?
stable assay Renilla, run 1 (luminescence): 6507; stable assay firefly, run 1 (luminescence): 3.60e5

Which result is listed for CG4998 (GeneID 39808) [DRSC10466]?
stable assay Renilla, run 1 (luminescence): 6963; stable assay firefly, run 1 (luminescence): 3.11e5

What did the screen give for CG4998 (GeneID 39808) [DRSC22911]?
stable assay Renilla, run 1 (luminescence): 2247; stable assay firefly, run 1 (luminescence): 3.33e5

For borr (GeneID 34245) [DRSC02749], what was measured?
stable assay Renilla, run 1 (luminescence): 5687; stable assay firefly, run 1 (luminescence): 5.38e5

Which result is listed for CG11406 (GeneID 37877) [DRSC04010]?
stable assay Renilla, run 1 (luminescence): 4855; stable assay firefly, run 1 (luminescence): 5.03e5

What did the screen give for CG11406 (GeneID 37877) [DRSC04108]?
stable assay Renilla, run 1 (luminescence): 6890; stable assay firefly, run 1 (luminescence): 4.57e5

5 entries already listed, sorted by “stable assay Renilla, run 1 (luminescence)”, descending.
CG5504 (GeneID 48844) [DRSC04701] | stable assay Renilla, run 1 (luminescence) = 17478; stable assay firefly, run 1 (luminescence) = 1.54e6
eys (GeneID 3771890) [DRSC00402] | stable assay Renilla, run 1 (luminescence) = 8499; stable assay firefly, run 1 (luminescence) = 3.89e5
CG2217 + CG42740 [DRSC14141] | stable assay Renilla, run 1 (luminescence) = 7283; stable assay firefly, run 1 (luminescence) = 3.33e5
CG6067 (GeneID 31529) [DRSC18399] | stable assay Renilla, run 1 (luminescence) = 5660; stable assay firefly, run 1 (luminescence) = 2.76e5
eys (GeneID 3771890) [DRSC00113] | stable assay Renilla, run 1 (luminescence) = 5283; stable assay firefly, run 1 (luminescence) = 3.97e5
